PubChem BioAssay AID504764 – Drosophila RNAi Screening Center, 2011

- Screen: 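Knock-downs that raise or lower a Notch target reporter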 (primary screen)
- System: Drosophila Kc167 cells
- Reagents: long dsRNA against Drosophila genes
- Duration: about 5 days (4 days dsRNA, then 24 h after transfection)
- Treatment: transfection of constitutively active membrane-tethered Notch lacking the extracellular domain, read 24 h later
- Measurement: 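Light from a Notch-responsive E(spl)m3 luciferase reporter under active Notch, with control-promoter and no-Notch reporter wells to normalise; raw counts from paired wells a and b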
- Scale: induced reporter light, run 1, well a and induced reporter light, run 1, well b: higher = more light from the Notch target reporter with active Notch; control promoter light, run 1, well a and control promoter light, run 1, well b: higher = more light from the viral control promoter (cell number, transfection, viability); uninduced reporter light, run 1, well a: higher = more light from the Notch target reporter without active Notch
- Rule for the call: 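Hit if the duplicate-averaged log2 ratio of induced to control-promoter light gives a plate-wise z beyond ±2, or induced to uninduced beyond ±1.8; weak-control or discordant-duplicate wells dropped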
- Calls: active = modifier hit (raised or lowered Notch signal); inactive = not a hit
In all, the deposit lists about 22,000 reagents; shown is a random part of those that have a named target and a result. In the full data, 403 (1.9%) were called active. 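Unnormalised raw counts per well; ratio z-scores behind the hit calls and whether each hit raises or lowers signal are not deposited.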 Entries without a mark were called inactive. No sequences are given here. The record does not give: the amount of reagent.

Gene | amplicon | induced reporter light, run 1, well a | induced reporter light, run 1, well b | control promoter light, run 1, well a | control promoter light, run 1, well b | uninduced reporter light, run 1, well a
EMC1 | DRSC15455 | 1.36e5 | 1.26e5 | 81060 | 80890 | 10975
Oatp30B | DRSC02727 | 3.09e5 | 2.84e5 | 2.06e5 | 1.81e5 | 22305
CG31191 | DRSC13455 | 70150 | 65070 | 81325 | 90115 | 7850
CG31191 | DRSC15214 | 29450 | 31920 | 27195 | 32750 | 1760
CG31191 | DRSC15215 | 38965 | 33950 | 24730 | 24142 | 6710
Cap-D3 | DRSC02349 | 1.95e5 | 2.06e5 | 2.31e5 | 2.23e5 | 9640
CG12477 | DRSC09886 | 2.47e5 | 2.63e5 | 3.30e5 | 3.40e5 | 13695
mmd | DRSC19672 | 13250 | 12965 | 15085 | 12640 | 6410
mmd | DRSC19673 | 63180 | 81120 | 1.14e5 | 73575 | 12385
mmd | DRSC20161 | 78440 | 69095 | 74315 | 66625 | 10160
CG33490 | DRSC10587 | 1.48e5 | 1.28e5 | 85205 | 37685 | 10900
Jupiter | DRSC15204 | 1.33e5 | 1.24e5 | 1.20e5 | 1.27e5 | 8290
Jupiter | DRSC15205 | 91290 | 82695 | 85175 | 46395 | 5055
Jupiter | DRSC15389 | 99430 | 81715 | 1.06e5 | 72410 | 4110
Cyp6a22 | DRSC07382 | 1.42e5 | 1.55e5 | 1.23e5 | 1.27e5 | 12135
CG12347 | DRSC14502 | 1.78e5 | 1.59e5 | 1.89e5 | 2.06e5 | 14580
tgo | DRSC17077 | 1.05e5 | 1.08e5 | 48360 | 48165 | 9720
Mnt | DRSC17894 | 1.00e5 | 1.19e5 | 1.24e5 | 1.14e5 | 10975
Mnt | DRSC18480 | 1.69e5 | 1.56e5 | 3.20e5 | 2.70e5 | 12282
Dic4 | DRSC10317 | 95410 | 97370 | 1.37e5 | 1.06e5 | 4550
CG11099 | DRSC06034 | 1.24e5 | 1.01e5 | 1.74e5 | 1.53e5 | 9795
CG13001 | DRSC19520 | 87335 | 97170 | 84795 | 1.23e5 | 13140
CG18180 | DRSC10304 | 1.02e5 | 98805 | 61185 | 34025 | 9960
Acp65Aa | DRSC09663 | 2.43e5 | 1.57e5 | 2.19e5 | 1.71e5 | 7760
CG3149 | DRSC17732 | 2.09e5 | 2.03e5 | 2.44e5 | 2.20e5 | 17060
SCaMC | DRSC10293 | 89120 | 99655 | 47055 | 30600 | 8020
SCaMC | DRSC10415 | 2.45e5 | 1.91e5 | 2.53e5 | 2.77e5 | 15710
E5 | DRSC13000 | 20485 | 21660 | 15650 | 20520 | 3860
E5 | DRSC16585 | 14238 | 13460 | 14288 | 11965 | 2830
Not11 | DRSC04204 | 1.80e5 | 1.92e5 | 1.31e5 | 1.42e5 | 15015
cni | DRSC03512 | 1.60e5 | 1.97e5 | 1.53e5 | 2.05e5 | 15310
karr | DRSC20681 | 91955 | 85940 | 99755 | 1.33e5 | 10995
Egfrap | DRSC09963 | 2.29e5 | 2.21e5 | 2.53e5 | 2.80e5 | 13110
Egfrap | DRSC09964 | 1.35e5 | 1.44e5 | 1.94e5 | 2.08e5 | 6620
Dhc36C | DRSC03315 | 1.04e5 | 1.36e5 | 1.14e5 | 1.36e5 | 10450
CG32189 | DRSC09511 | 1.74e5 | 1.82e5 | 3.21e5 | 2.55e5 | 18080
ND-MNLL | DRSC18159 | 1.06e5 | 1.02e5 | 2.14e5 | 1.92e5 | 8340
Swt1 | DRSC20028 | 1.19e5 | 1.30e5 | 1.13e5 | 59360 | 11110
eIF4E6 | DRSC14853 | 1.45e5 | 1.52e5 | 1.70e5 | 1.89e5 | 13225
Syx4 | DRSC18586 | 97105 | 1.01e5 | 1.65e5 | 2.22e5 | 7755
brwl | DRSC01080 | 6915 | 5165 | 6200 | 5628 | 4210
brwl | DRSC02729 | 2.22e5 | 1.92e5 | 1.77e5 | 1.81e5 | 17040
HmgD | DRSC04619 | 1.46e5 | 1.67e5 | 1.19e5 | 1.26e5 | 11870
Or30a | DRSC03385 | 1.12e5 | 1.40e5 | 65580 | 72720 | 19025
CG31365 | DRSC15610 | 2.22e5 | 1.93e5 | 1.78e5 | 2.02e5 | 17040
Kdm4A | DRSC06586 | 1.54e5 | 1.65e5 | 1.59e5 | 1.60e5 | 13795
ATPsynD | DRSC14093 | 53655 | 46980 | 66200 | 71395 | 4515
Rac1 | DRSC08688 | 66805 | 85915 | 1.30e5 | 1.26e5 | 2385
CG15550 | DRSC15088 | 96125 | 1.08e5 | 1.17e5 | 1.40e5 | 9325
spab | DRSC07112 | 1.88e5 | 1.93e5 | 2.44e5 | 2.03e5 | 16335

An excerpt from above, showing only “induced reporter light, run 1, well b”.
Jupiter [DRSC15389] = 81715
Cyp6a22 [DRSC07382] = 1.55e5
